Results are given in words; binding and its absence hold for the method and conditions named. Some entries that bind do so weakly or less than the wild type. Where a sequence is shown, tags or fusion partners need not be part of it.
T1: mouse glucocorticoid-induced tumor necrosis factor receptor (mGITR), expressed on the cell surface (mouse) (UniProt O35714)
T1 sequence (looked up): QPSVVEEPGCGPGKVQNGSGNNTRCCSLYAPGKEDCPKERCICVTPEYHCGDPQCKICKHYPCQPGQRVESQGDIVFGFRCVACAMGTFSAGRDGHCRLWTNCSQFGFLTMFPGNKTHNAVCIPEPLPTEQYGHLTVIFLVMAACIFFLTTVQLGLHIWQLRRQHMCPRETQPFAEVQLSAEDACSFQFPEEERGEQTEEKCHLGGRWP

T2: mouse glucocorticoid-induced TNF receptor ligand (mGITRL), expressed on the cell surface (mouse) (UniProt Q7TS55)
T2 sequence: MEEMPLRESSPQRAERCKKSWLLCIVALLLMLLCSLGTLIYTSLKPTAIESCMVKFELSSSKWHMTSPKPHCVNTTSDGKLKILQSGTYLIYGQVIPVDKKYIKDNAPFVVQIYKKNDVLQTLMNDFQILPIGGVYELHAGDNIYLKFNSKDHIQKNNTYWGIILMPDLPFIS


Legend:
[1] = target: T1, mouse glucocorticoid-induced tumor necrosis factor receptor (mGITR), expressed on the cell surface (mouse); experiment: flow cytometry on mGITR transfectants (Jurkat JE6.1), detected with anti-His tag antibody
[2] = target: T2, mouse glucocorticoid-induced TNF receptor ligand (mGITRL), expressed on the cell surface (mouse); experiment: flow cytometry on mGITRL transfectants against nontransfectants

| binding [2] | Binder | binding [1] |
| --- | --- | --- |
|  | recombinant mGITRL (extracellular domain, 6xHis tag, from E. coli) (ligand, not shown: small tags and cut ends) SLKPTAIESCMVKFELSSSKWHMTSPKPHCVNTTSDGKLKILQSGTYLIYGQVIPVDKKYIKDNAPFVVQIYKKNDVLQTLMNDFQILPIGGVYELHAGDNIYLKFNSKDHIQKNNTYWGIILMPDLPFIS | binds |
| binds | recombinant mGITR-Fc (Alexis Biochemicals) (Fc fusion, mouse, UniProt O35714 20-153, looked up, not shown: a dimerising Fc or GST) QPSVVEEPGCGPGKVQNGSGNNTRCCSLYAPGKEDCPKERCICVTPEYHCGDPQCKICKHYPCQPGQRVESQGDIVFGFRCVACAMGTFSAGRDGHCRLWTNCSQFGFLTMFPGNKTHNAVCIPEPLPTEQYGH |  |

— US20090181459A1
